No constants are given. Whether binding was seen depends on the method and setting. A result given as binding can be weak or reduced; the word gives no strength. Tags and fused reporters may be left off the sequences shown. For some assays here: Binding seen in cells or lysates may run through a third protein.
Legend:
[1] = molecular target: T1, ICA69, human ortholog of RIC-19 (yeast two-hybrid fusion) (human) (UniProt Q05084); experiment: two-hybrid; Matchmaker (Clontech), yeast strain AH109; RIC-19 or ICA69 against TBC-8 full length or RUN domain (1-597 aa); growth on plates lacking histidine; empty pGADT7 for self-activation
T1 sequence: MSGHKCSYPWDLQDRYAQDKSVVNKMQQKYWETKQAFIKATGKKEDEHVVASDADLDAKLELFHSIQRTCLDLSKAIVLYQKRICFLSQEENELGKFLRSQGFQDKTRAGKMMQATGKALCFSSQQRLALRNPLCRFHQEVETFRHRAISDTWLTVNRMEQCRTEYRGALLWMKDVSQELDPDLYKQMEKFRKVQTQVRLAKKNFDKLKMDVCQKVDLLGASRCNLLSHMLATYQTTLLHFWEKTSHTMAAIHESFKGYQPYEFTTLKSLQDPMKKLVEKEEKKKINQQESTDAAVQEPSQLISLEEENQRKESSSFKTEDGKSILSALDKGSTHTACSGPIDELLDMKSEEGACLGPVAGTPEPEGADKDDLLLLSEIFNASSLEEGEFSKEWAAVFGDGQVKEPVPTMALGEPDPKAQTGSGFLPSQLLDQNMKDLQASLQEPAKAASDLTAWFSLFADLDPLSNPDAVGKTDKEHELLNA

[2] = molecular target: T2, RIC-19, RAB-2 effector (yeast two-hybrid fusion) (C. elegans) (UniProt P91124); experiment: as above
T2 sequence: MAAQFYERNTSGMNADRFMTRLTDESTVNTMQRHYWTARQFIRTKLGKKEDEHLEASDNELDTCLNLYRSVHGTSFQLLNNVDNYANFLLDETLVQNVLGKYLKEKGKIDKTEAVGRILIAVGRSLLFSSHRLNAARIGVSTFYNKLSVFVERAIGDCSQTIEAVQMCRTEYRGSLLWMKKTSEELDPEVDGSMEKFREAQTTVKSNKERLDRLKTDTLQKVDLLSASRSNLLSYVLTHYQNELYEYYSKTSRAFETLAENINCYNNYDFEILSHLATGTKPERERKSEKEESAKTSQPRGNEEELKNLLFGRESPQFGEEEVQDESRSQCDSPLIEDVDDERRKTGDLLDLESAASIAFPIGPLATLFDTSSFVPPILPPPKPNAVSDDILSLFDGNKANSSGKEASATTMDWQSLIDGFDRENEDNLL

[3] = molecular target: T3, GFP-tagged RIC-19 (C. elegans) (UniProt P91124); experiment: co-IP; HEK293 cells co-transfected with GFP-RIC-19 (or GFP) and V5-TBC-8; lysis in 50 mM Tris pH 7.5, 150 mM NaCl, 1% Triton X 100; anti-GFP antibody (clone 3E6) and Protein G Plus-sepharose at 4°C; washes with 500 mM NaCl; blots with anti-GFP and anti-V5
T3 sequence: T2 sequence

binding [1] | binding [2] | binding [3] | Substance
binds | binds |  | TBC-8 wild type, full length (Gal4 activation domain fusion) (C. elegans)
 |  | binds | V5-TBC-8 RUN domain (1–597 aa) (C. elegans) (domain or fragment)
binds | binds |  | TBC-8 RUN domain (1–597 aa) (Gal4 activation domain fusion) (C. elegans) (domain or fragment)

Reference: PMC3359978
